From article PMC8876916
Results are given in words; binding and its absence hold for the method and conditions named. For some assays here: In cells and extracts the contact can be indirect. Some entries that bind do so weakly or less than the wild type. For some assays here: Sequences can lack the tags named with a protein.

The chains behind the UniProt entries cited, without tags or fusion partners.
UniProt P03372: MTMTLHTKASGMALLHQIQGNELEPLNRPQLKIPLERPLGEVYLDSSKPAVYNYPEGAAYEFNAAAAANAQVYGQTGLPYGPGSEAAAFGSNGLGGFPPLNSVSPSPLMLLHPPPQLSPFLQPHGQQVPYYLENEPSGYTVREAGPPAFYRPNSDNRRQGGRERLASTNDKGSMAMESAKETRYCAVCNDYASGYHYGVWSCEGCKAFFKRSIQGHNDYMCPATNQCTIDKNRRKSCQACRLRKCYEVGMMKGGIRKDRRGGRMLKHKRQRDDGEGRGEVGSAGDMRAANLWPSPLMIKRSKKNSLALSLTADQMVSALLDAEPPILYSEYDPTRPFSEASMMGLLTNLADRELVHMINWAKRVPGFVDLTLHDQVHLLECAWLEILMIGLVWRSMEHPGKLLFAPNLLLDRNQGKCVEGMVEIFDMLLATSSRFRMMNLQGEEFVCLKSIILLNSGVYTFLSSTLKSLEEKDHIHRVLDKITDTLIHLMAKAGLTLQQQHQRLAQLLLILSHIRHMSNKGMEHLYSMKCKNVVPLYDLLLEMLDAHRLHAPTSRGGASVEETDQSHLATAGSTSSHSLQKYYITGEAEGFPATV

B1: wild-type CCN1 (CYR61), stably overexpressed in MCF-7/CCN1 cells (protein, UniProt O00622 25-381)
chain: TCPAACHCPLEAPKCAPGVGLVRDGCGCCKVCAKQLNEDCSKTQPCDHTKGLECNFGASSTALKGICRAQSEGRPCEYNSRIYQNGESFQPNCKHQCTCIDGAVGCIPLCPQELSLPNLGCPNPRLVKVTGQCCEEWVCDEDSIKDPMEDQDGLLGKELGFDASEVELTRNNELIAVGKGSSLKRLPVFGMEPRILYNPLQGQKCIVQTTSWSQCSKTCGTGISTRVTNDNPECRLVKETRICEVRPCGQPVYSSLKKGKKCSKTKKSPEPVRFTYAGCLSVKKYRPKYCGSCVDGRCCTPQLTRTVKMRFRCEDGETFSKNVMMIQSCKCNYNCPHANEAAFPFYRLFNDIHKFRD
B2: GST-CCN1 fusion protein (protein, UniProt O00622 25-381)
chain: B1 chain

Legend:
[1] = target: estrogen receptor alpha (ERα), endogenous in MCF-7/CCN1 cells (human (endogenous in MCF-7)) (UniProt P03372); test: co-IP; whole cell extracts of MCF-7/CCN1 cells; ERα immunoprecipitated, blotted with anti-ERα and anti-CCN1 antibodies; nonspecific IgG as control
[2] = target: recombinant human estrogen receptor alpha (His-tag) (human) (UniProt P03372); test: pull-down; purified GST-CCN1 incubated with ERα-His and Ni-NTA His•Bind resin beads; pH 7.35, 150 mM NaCl, 0.5 mM EDTA, 50 mM Tris-HCl, 0.5% NP-40, 4° C, 4 hours; 5 washes; bound proteins blotted; both purified

Binder	binding [1]	binding [2]
B1	binds	–
B2	–	binds
